# According to PubChem BioAssay AID595 (National Center for Advancing Translational Sciences (NCATS), 2007):
# Among all 71,000 compounds or so, about 310 (0.44%) were called active. This list was built around the results that the source calls inconclusive (neither active nor inactive); the mix of calls is not that of the screen. The call rests on the fitted dose curve; in most records, active means well fitted curve in either direction with a large enough effect; inconclusive means small, poorly fitted or top-dose-only effect, or another doubt; inactive means flat fitted curve, though single readings scatter. Potencies beside an inconclusive call are fits to weak or partial responses and may not hold up.
# Tested on: Hsp90 C-terminal peptide / TPR2A (Hop) interaction, human
# Assay: qHTS Assay for Disrupters of an Hsp90 Co-Chaperone Interaction
# Conditions: AlphaScreen TPR2A-His6 binding biotin-Hsp90 C-terminal peptide; activity change, negative = inhibition: at 57 µM (top of the series) unless noted
# On the % scale 0 is the no-effect control and ±100 the full control effect; potency means the concentration at half of the fitted maximal effect.
SMILES,"activity change, negative = inhibition",Potency
Cc1ccc(OCCn2c(NC(=O)c3ccco3)nc3ccccc32)cc1,inconclusive: 52.3%,
N#CCCCCn1c(-c2cncs2)nc2ccccc21,inconclusive: 18.3%,
Nc1ccccc1O,inactive,
CCS(=O)c1ccccc1C(=O)O (stereo not given),inconclusive: 43.7%,
CCOc1cc(/C=N/n2cnnc2)cc(Br)c1O,inconclusive: 44.4%,
CCCn1c(CN2CCN(C(=O)OCC)CC2)nc2c1c(=O)n(C)c(=O)n2C,,"inconclusive: 39.8 µM [inhibitor, single point]"
CCCN1CCN(C(=O)c2cccc3c2C(=O)N(CCOC)C3)CC1,inconclusive: 45.8%,
Cc1cnc(CNc2ccnc(-c3ccccc3CN(C)C)n2)cn1,inactive,
O=C(CSCc1nc2ccccc2[nH]1)N1CCN(c2ccc(F)cc2)CC1,inactive,
COc1ccc(-c2cc(C(=O)OC3CCOC3=O)c3ccccc3n2)cc1OC (stereo not given),,"inconclusive: 20 µM [activator, single point]"
CCC(SCC(=O)OC)C(=O)Nc1nnc(C(C)C)s1 (stereo not given),inactive,
COc1cc(-c2nc(Cc3ccccc3Cl)no2)cc(OC)c1OC,,"inconclusive: 20 µM [activator, single point]"
CN(C)C(=O)c1c(-c2ccccc2)oc2ccc(O)cc12,inconclusive: 55.4%,
Cc1ccc(S(=O)(=O)Nn2c(C)nnc2-n2nc(C)cc2C)cc1,inconclusive: 26.1%,
CN(C)C(=O)c1ccc(-c2nc(NCc3cccs3)c3ccccc3n2)cc1,inactive,
O=C(Nc1ccon1)c1cc2c(s1)CCCC2,inconclusive: 70.9%,
CN1CCC[C@@H]1c1cccnc1.O=C(O)c1ccccc1O.O=C([OH2+])c1ccccc1O.O=C([OH2+])c1ccccc1O.O=C([OH2+])c1ccccc1O.[Mn],inactive: -2.02% [at 11 µM],
Cc1c(C(=O)N2CCCC2)nnn1-c1nonc1N,inconclusive: 43.1%,
O=C(CC(c1ccccc1)c1ccccc1)Nc1ncn[nH]1,,"inconclusive: 31.6 µM [inhibitor, single point]"
O=C1c2ccccc2C(Nc2ccc(Cl)cn2)N1c1ccccn1 (stereo not given),inactive: -2.32% [at 2.3 µM],
CN(C)S(=O)(=O)c1cccc(-c2nnc(SCc3cc(Cl)cc4c3OCOC4)n2N)c1,inactive,
O=C(O)c1cccc(S(=O)(=O)N2CCCC2)c1,inconclusive: 49.4%,
Cc1ccccc1OCc1nc(-c2ccccc2)no1,,"inconclusive: 25.1 µM [activator, single point]"
c1ccc(-n2nnnc2SCc2cn3cccnc3n2)cc1,inconclusive: 32.3%,
COc1ccc(S(=O)(=O)Nc2ccc3c(c2)OCO3)cc1OC,inactive,

# Among those listed so far, 3 have an aryl methoxy group.
SMILES,"activity change, negative = inhibition",Potency
COc1ccc(-c2cc(C(=O)OC3CCOC3=O)c3ccccc3n2)cc1OC (stereo not given),,"inconclusive: 20 µM [activator, single point]"
COc1cc(-c2nc(Cc3ccccc3Cl)no2)cc(OC)c1OC,,"inconclusive: 20 µM [activator, single point]"
COc1ccc(S(=O)(=O)Nc2ccc3c(c2)OCO3)cc1OC,inactive,
